{"source": "PubChem BioAssay AID602313", "about": "(National Center for Advancing Translational Sciences (NCATS), 2012)", "note": "The campaign covered roughly 390,000 compounds. About 760 (0.19%) were called active. The shares of active, inactive and inconclusive entries below differ from those in the screen. Calls follow the shape of the dose curve; as a rule, active = well fitted inhibition curve with a large enough effect; inconclusive = small, poorly fitted or top-dose-only effect; inactive = flat fitted curve, though single readings scatter. Potencies of inconclusive entries are doubtful fits and often do not repeat. Potency is read from the fitted curve at half-maximal effect."}
{"test": "qHTS for Inhibitors of Vif-A3F Interactions: qHTS; also: nearly all actives have a fitted effect of over 65% in size; as to activity, negative = active: % of control where 0% means no effect", "conditions": "HeLa A3F-eYFP + Vif (tagged APOBEC3F with the HIV-1 protein that degrades it), YFP fluorescence increase; series mostly up to 46.1 µM; activity, negative = active: at the top concentration", "how_it_was_run": "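HeLa cells stably expressing A3F-eYFP plus Vif, plated and incubated overnight at 37 deg C, then exposed to compounds overnight at 37 deg C. Blocked degradation read as raised yellow fluorescence (Ex 488/Em 500-530).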"}
{"smiles": "CCC(=O)N/N=C(\\C)CC(=O)Nc1ccc2ccccc2c1", "Potency": "inconclusive: 25.1 µM [inhibitor, single point]"}
{"smiles": "CC(C)C(OC(=O)c1nsc(Cl)c1Cl)C(=O)NCC1CCCO1", "note": "(stereo not given)", "activity, negative = active": "inactive: -0.607%"}
{"smiles": "CCCOc1ccc(CC(=O)NCC2(c3ccccc3)CCOCC2)cc1OC", "activity, negative = active": "inactive: -6.91%"}
{"smiles": "O=c1[nH]ncc(N2CCCC2)c1Cl", "Potency": "inconclusive: 7.94 µM [inhibitor, partial curve]"}
{"smiles": "Cc1nn(CC(=O)Nc2ccc(N(C)C)cc2)c(C)c1[N+](=O)[O-]", "Potency": "inconclusive: 5.62 µM [inhibitor, single point]"}
{"smiles": "S=c1[nH]nc(-c2ccco2)n1/N=C/c1ccc(Cl)c(Cl)c1", "Potency": "inconclusive: 0.562 µM [inhibitor, full curve, poor fit]"}
{"smiles": "O=C(Nc1ccc(N2CCN(C(=O)c3ccco3)CC2)cc1)c1ccc([N+](=O)[O-])cc1Cl", "activity, negative = active": "inactive: 6.85%"}
{"smiles": "Cc1ccc(CSC2=Nc3ccccc3C3=NC(CCC(=O)NCCc4ccccc4)C(=O)N23)cc1", "note": "(stereo not given)", "activity, negative = active": "inactive: 5.42%"}
{"smiles": "Cc1cc(/C=C2\\SC(=S)NC2=O)c(C)n1-c1ccc(O)cc1", "Potency": "inconclusive: 22.4 µM [inhibitor, single point]"}
{"smiles": "C=CCNC(=O)CSc1n[nH]c(-c2cc(Cl)ccc2OC)n1", "Potency": "inconclusive: 6.31 µM [inhibitor, single point]"}
{"smiles": "O=c1c2ccccc2nc(/C=C/c2ccc([N+](=O)[O-])o2)n1CCCO", "Potency": "active: 22.4 µM"}
{"smiles": "COc1ccc(C2(CNC(=O)C(=O)Nc3ccc(C)c(Cl)c3)CCCC2)cc1OC", "activity, negative = active": "inactive: -20.9%"}
{"smiles": "Cc1cccc(NCc2n[nH]c(=S)n2-c2ccccc2)c1", "activity, negative = active": "inactive: -0.548%"}
{"smiles": "CC(=O)c1cccc(NC(=O)N2CCC(C(=O)c3ccc(F)cc3)CC2)c1", "Potency": "inconclusive: 6.31 µM [inhibitor, single point]"}
{"smiles": "Cc1ccc(O)c(NC2=C(Cl)C(=O)N(Cc3ccccc3)C2=O)c1", "Potency": "inconclusive: 17.8 µM [inhibitor, partial curve, poor fit]"}
{"smiles": "O=C(O)CSc1cc(NS(=O)(=O)c2cccc([N+](=O)[O-])c2)c2ccccc2c1O", "Potency": "inconclusive: 31.6 µM [inhibitor, single point]"}
{"smiles": "O=C(Nc1ccccc1)/C(=C/c1ccc([N+](=O)[O-])cc1)NC(=O)c1ccco1", "Potency": "inconclusive: 17.8 µM [inhibitor, partial curve, poor fit]"}
{"smiles": "C=CCn1c(O)c2ccc(C(=O)N=NC(=O)c3ccc(F)cc3)cc2c1O", "Potency": "inconclusive: 2.82 µM [inhibitor, single point]"}
{"smiles": "CCCC(c1nnnn1Cc1ccc(OC)cc1)N1CCN(c2ccccc2)CC1", "note": "(stereo not given)", "activity, negative = active": "inactive: -13.2%"}
{"smiles": "COc1ccc(NC(=O)CSc2ccc(F)cc2)cc1S(=O)(=O)N1CCCCC1", "Potency": "inconclusive: 3.98 µM [inhibitor, single point]"}
{"smiles": "CN(C)c1nc(N)nc(CSc2nc3c(c(=O)n(C)c(=O)n3C)n2Cc2ccccc2F)n1", "Potency": "inconclusive: 35.5 µM [inhibitor, single point]"}
{"smiles": "O=C(NC(=S)Nc1ccc(-c2ccccc2)cc1)c1ccccc1", "Potency": "inconclusive: 5.62 µM [inhibitor, full curve, poor fit]"}
{"smiles": "COc1ccc(C(=O)/C=C/Nc2cc(C)ccn2)cc1", "Potency": "inconclusive: 11.2 µM [inhibitor, partial curve, poor fit]"}
{"smiles": "O=C(CN1C(=O)NC2(CCCCC2)C1=O)Nc1ccc(Cl)cc1", "Potency": "inconclusive: 5.62 µM [inhibitor, single point]"}
{"smiles": "O=C(c1ccc(CS(=O)(=O)c2c(Cl)cccc2Cl)o1)N1CCN(c2ccccc2)CC1", "activity, negative = active": "inactive: 2.13%"}
{"smiles": "Cc1ccc(CNC(=O)CCSCCC(=O)NCc2ccc(C)cc2)cc1", "Potency": "inconclusive: 5.62 µM [inhibitor, single point]"}
{"smiles": "CC(/C=N/NC(=O)c1nnn(-c2nonc2N)c1C(C)C)=C\\c1ccco1", "Potency": "inconclusive: 35.5 µM [inhibitor, single point]"}
{"smiles": "CCCCc1c(O)nc(SCC(=O)c2ccccc2)[nH]c1=O", "Potency": "inconclusive: 28.2 µM [inhibitor, single point]"}
{"smiles": "CCN1CCN(c2cc(C)c3cc(NC(=O)c4ccccc4F)ccc3n2)CC1", "activity, negative = active": "inactive: -6.6%"}
{"smiles": "Cc1cccc(OCC(=O)NC2CCCc3ccccc32)c1C", "note": "(stereo not given)", "Potency": "inconclusive: 3.55 µM [inhibitor, single point]"}
{"smiles": "Cc1c(C(=O)N(Cc2ccc(N(C)C)cc2)CC2CCCO2)oc2ccc(Br)cc12", "note": "(stereo not given)", "activity, negative = active": "inactive: 6.69%"}
{"smiles": "Nc1nc(N)c2ncc(C(=O)CCc3ccccc3)nc2n1", "Potency": "inconclusive: 35.5 µM [inhibitor, single point]"}
{"smiles": "Cc1ccc(C(=O)CSc2nnc(C(C)C)n2C)cc1C", "Potency": "inconclusive: 0.316 µM [inhibitor, full curve, poor fit]"}
{"smiles": "COc1ccc(/C(C)=N/NC(=S)NCCc2ccccc2)cc1", "Potency": "inconclusive: 3.98 µM [inhibitor, single point]"}
{"smiles": "Cc1ccc2nc(Nc3ccc4[nH]c(=O)[nH]c4c3)c(-n3nc(C)cc3C)nc2c1", "Potency": "inconclusive: 31.6 µM [inhibitor, single point]"}
{"smiles": "C=Cc1ccc(Cn2c(=O)cc(C)c3c(C)nn(C)c32)cc1", "activity, negative = active": "inactive: -1.02%"}
{"smiles": "COc1cc(-c2nnc(SCC(=O)Oc3ccccc3Cl)o2)cc(OC)c1OC", "activity, negative = active": "inactive: 4.07%"}
{"smiles": "CC1C(C)N(C(=O)CCCl)c2ccccc2N1C(=O)CCCl", "note": "(stereo not given)", "Potency": "inconclusive: 11.2 µM [inhibitor, single point]"}
{"smiles": "CCc1ccc(C(=O)NNC(=O)CN2C(=O)NC(CC)(c3ccccc3)C2=O)cc1", "note": "(stereo not given)", "Potency": "inconclusive: 35.5 µM [inhibitor, single point]"}
{"smiles": "CCCC[n+]1c2ccccc2cc2ccccc21", "activity, negative = active": "inactive: -6.82%"}
{"smiles": "O=c1c(N2CCc3ccccc3C2)csc2ccc(Br)cc12", "Potency": "inconclusive: 35.5 µM [inhibitor, single point]"}
{"smiles": "Cc1cc(C)n(C(=O)CNc2ccccc2Cl)n1", "activity, negative = active": "inactive: -8.37%"}
{"smiles": "COc1ccccc1-c1cnn2c(N3CCOCC3)cc(C)nc12", "Potency": "inconclusive: 35.5 µM [inhibitor, partial curve, poor fit]"}
{"smiles": "NNC(=S)NCc1ccccc1", "Potency": "inconclusive: 35.5 µM [inhibitor, partial curve, poor fit]"}
{"smiles": "COc1ccccc1NC(=O)CSC1=Nc2ccccc2C2=NC(CC(=O)NCc3cccs3)C(=O)N12", "note": "(stereo not given)", "Potency": "inconclusive: 31.6 µM [inhibitor, single point]"}
